These results are taken from the supplement of paper PMC6411743.

Protein sequences, listed by entry. Tags and fused reporters are not part of them. Lines headed by an entry give the natural chain unless they say otherwise; changes in a name come on top.
UniProt P60900, whole entry: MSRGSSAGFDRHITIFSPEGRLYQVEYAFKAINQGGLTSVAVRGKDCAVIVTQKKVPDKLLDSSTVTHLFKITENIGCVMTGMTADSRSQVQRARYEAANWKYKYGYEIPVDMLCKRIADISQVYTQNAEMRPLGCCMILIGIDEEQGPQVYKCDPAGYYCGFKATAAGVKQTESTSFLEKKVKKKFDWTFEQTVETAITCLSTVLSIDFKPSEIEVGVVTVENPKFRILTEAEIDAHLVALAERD
UniProt P61764, whole entry: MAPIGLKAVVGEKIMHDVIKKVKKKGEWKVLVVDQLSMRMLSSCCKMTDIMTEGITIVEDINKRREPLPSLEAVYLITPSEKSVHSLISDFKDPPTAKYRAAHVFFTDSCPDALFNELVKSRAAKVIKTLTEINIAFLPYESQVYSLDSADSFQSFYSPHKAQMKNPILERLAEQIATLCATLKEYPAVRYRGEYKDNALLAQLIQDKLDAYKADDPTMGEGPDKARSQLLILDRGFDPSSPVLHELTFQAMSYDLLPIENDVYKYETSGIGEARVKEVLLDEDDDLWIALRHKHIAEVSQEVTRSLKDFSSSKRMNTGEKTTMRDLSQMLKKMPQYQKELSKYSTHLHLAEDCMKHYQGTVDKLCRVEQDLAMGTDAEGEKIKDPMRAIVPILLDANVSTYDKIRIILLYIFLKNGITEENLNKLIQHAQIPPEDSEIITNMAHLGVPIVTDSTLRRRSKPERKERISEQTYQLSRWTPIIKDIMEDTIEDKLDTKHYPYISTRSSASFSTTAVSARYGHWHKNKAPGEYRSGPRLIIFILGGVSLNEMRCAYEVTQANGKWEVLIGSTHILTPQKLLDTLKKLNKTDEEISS
UniProt P63151: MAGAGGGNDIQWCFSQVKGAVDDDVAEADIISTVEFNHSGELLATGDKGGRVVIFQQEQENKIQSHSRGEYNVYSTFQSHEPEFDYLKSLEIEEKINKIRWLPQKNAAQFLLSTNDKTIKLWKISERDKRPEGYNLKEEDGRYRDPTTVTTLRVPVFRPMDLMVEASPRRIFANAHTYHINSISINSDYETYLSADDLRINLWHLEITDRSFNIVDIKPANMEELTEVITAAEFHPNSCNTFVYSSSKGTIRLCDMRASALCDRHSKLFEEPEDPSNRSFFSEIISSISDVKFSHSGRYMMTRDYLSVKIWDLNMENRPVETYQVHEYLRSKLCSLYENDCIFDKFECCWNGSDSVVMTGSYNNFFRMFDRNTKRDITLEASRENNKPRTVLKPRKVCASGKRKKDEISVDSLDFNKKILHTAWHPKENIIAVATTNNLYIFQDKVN
UniProt P55211: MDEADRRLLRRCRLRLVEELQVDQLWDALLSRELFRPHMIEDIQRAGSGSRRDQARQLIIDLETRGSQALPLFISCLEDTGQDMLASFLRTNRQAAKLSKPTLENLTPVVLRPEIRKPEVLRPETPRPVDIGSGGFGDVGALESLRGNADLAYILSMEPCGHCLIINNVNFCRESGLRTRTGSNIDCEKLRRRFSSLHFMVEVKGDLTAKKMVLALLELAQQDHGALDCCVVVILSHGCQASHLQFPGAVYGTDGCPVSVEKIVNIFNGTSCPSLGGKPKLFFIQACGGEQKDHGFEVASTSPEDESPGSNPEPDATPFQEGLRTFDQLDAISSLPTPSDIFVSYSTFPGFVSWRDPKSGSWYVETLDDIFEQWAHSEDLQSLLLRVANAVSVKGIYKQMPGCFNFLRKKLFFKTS
UniProt P62993, whole entry, looked up: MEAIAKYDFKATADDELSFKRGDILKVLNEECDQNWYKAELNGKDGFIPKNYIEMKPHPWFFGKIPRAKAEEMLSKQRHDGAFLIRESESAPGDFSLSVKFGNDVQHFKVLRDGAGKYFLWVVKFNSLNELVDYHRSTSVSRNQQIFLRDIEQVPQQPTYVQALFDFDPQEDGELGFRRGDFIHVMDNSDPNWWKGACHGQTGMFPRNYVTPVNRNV
UniProt P56199, whole entry: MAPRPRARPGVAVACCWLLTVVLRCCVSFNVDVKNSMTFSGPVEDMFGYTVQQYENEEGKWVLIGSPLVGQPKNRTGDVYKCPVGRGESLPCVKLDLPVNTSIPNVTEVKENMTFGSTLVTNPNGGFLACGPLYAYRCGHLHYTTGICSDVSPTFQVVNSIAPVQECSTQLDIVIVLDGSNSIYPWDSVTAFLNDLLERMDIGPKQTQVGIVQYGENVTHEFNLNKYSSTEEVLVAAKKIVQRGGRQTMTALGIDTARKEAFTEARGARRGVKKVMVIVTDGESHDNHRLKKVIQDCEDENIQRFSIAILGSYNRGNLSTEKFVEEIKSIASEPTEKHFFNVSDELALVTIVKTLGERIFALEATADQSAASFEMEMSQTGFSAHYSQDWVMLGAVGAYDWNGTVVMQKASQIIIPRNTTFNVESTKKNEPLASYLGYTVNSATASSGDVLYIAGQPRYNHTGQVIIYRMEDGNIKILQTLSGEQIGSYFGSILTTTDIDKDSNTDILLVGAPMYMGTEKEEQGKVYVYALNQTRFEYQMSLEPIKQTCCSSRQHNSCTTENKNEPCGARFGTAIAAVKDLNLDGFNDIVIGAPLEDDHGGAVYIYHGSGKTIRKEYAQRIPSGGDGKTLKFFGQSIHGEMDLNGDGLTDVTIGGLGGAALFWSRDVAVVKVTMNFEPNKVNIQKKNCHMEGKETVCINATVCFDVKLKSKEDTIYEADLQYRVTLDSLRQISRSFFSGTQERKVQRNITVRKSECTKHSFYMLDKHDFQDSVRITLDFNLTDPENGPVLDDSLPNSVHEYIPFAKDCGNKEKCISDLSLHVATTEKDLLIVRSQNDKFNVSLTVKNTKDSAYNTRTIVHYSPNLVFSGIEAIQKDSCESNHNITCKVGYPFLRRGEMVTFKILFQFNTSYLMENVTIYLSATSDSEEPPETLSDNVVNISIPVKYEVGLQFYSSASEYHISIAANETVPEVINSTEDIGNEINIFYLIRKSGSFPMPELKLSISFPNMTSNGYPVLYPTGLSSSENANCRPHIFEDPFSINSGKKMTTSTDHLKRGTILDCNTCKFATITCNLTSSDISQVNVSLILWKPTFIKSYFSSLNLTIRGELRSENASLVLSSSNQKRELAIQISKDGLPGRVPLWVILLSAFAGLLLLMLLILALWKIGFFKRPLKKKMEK
UniProt P56385: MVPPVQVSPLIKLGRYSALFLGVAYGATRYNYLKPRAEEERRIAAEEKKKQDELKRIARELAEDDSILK
UniProt P68402: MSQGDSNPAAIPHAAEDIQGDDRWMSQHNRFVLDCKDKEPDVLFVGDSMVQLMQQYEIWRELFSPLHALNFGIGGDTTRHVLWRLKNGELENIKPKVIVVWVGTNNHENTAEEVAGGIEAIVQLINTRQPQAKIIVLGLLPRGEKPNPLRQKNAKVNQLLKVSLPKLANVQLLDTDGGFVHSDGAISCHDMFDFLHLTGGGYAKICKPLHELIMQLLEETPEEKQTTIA
UniProt P61604, whole entry: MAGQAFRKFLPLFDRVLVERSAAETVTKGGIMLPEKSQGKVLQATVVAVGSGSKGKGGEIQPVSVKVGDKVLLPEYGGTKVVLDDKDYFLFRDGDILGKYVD
UniProt P56181: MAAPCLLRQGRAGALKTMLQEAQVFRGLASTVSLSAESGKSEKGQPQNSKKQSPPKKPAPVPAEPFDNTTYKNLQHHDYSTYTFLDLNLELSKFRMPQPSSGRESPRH
UniProt P68366, whole entry: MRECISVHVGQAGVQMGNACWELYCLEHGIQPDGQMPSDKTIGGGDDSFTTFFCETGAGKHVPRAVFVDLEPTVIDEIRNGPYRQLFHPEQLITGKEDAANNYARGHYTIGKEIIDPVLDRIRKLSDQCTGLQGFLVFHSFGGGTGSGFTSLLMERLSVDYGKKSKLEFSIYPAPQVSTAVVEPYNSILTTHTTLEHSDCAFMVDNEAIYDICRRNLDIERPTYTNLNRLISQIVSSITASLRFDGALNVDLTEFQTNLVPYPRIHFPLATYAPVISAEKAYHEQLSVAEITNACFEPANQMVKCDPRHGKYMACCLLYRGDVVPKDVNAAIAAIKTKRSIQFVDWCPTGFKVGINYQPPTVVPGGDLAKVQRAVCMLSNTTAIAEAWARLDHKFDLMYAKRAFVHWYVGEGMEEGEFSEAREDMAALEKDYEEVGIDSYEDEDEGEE
UniProt P54136: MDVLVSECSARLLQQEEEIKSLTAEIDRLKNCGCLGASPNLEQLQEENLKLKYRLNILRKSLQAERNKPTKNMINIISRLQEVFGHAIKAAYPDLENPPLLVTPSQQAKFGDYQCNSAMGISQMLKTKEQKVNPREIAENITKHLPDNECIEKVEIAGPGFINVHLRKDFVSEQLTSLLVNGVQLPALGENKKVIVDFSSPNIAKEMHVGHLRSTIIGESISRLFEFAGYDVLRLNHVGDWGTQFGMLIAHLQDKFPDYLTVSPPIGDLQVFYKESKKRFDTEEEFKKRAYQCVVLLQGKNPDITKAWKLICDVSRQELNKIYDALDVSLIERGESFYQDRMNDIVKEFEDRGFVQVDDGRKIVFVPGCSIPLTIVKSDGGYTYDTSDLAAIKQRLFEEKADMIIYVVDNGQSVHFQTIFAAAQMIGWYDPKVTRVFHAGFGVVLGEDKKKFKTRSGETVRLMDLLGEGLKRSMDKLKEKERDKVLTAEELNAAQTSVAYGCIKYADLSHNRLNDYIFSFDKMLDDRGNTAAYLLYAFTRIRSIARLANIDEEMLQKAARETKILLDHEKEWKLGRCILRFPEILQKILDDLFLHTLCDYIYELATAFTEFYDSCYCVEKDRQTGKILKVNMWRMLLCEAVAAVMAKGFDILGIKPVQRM
UniProt P78356: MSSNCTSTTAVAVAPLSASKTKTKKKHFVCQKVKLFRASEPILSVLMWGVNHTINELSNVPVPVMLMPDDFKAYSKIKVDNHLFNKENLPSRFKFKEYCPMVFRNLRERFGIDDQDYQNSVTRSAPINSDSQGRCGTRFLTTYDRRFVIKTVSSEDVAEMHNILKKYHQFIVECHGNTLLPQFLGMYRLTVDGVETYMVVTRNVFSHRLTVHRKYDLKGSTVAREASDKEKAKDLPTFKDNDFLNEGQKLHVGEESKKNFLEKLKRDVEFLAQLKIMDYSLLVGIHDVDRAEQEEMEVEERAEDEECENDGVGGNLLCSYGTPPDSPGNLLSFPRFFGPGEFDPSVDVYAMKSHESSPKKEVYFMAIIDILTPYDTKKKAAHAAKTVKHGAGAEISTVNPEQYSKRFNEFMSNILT
UniProt P78345: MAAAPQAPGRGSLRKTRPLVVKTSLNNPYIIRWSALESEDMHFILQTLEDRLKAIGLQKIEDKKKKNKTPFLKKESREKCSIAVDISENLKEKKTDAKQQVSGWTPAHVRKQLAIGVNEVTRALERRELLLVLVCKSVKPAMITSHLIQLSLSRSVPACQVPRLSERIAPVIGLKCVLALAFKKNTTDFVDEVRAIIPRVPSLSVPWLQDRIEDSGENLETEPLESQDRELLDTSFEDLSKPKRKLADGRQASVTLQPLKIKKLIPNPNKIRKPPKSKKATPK
UniProt P55210: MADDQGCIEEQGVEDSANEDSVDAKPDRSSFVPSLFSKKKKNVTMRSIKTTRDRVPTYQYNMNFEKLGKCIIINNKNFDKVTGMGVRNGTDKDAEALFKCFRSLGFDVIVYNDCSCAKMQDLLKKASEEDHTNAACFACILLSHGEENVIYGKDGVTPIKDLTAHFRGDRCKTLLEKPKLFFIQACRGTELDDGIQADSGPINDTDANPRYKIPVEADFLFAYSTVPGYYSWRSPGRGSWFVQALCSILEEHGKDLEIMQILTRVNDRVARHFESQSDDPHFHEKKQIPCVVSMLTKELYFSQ
UniProt P78417: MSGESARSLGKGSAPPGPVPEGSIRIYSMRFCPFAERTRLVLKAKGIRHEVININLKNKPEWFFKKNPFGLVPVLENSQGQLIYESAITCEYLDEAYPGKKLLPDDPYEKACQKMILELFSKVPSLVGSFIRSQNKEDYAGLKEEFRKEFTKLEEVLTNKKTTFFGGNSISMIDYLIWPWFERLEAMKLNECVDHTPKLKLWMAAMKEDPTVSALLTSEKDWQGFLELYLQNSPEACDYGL
UniProt P63172, whole entry: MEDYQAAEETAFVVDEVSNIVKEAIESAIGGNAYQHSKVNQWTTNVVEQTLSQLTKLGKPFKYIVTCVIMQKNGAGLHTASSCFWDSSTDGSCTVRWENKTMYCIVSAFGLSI
UniProt P61024, whole entry: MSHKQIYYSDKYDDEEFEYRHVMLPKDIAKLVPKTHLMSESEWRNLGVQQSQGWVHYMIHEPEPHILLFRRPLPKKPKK
UniProt P53597: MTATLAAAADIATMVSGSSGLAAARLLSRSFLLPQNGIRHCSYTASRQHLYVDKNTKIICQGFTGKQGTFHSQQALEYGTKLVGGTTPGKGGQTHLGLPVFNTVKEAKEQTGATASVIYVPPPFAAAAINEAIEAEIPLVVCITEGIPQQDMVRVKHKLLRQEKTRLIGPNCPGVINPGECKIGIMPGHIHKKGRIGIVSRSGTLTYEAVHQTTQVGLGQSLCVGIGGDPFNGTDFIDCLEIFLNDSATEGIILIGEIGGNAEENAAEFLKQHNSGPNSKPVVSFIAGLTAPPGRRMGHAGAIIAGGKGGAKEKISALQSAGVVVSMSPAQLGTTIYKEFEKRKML
UniProt P61956, whole entry: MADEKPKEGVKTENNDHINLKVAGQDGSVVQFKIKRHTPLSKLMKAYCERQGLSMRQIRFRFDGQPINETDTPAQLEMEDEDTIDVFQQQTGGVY

Compound in the experiment: Nc1ncnc2c1ncn2[C@@H]1O[C@H](COP(=O)(O)OP(=O)(O)OP(=O)(O)O)[C@@H](O)[C@H]1O [adenosine triphosphate]
The experiment can be described thus: NP40-soluble protein abundance relative to vehicle (solubility fold change) (ratio); higher = more soluble protein in presence of ATP. The method, boiled down:
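Each value is a fold change relative to the detergent-processed vehicle, calculated per replicate from vsn-normalised intensities. Jurkat crude lysate received eight concentrations (0.1 to 10 mM) for 10 min at room temperature and 3 min at 37 °C, then was solubilised in 0.8% NP40 with benzonase (60 min, 4 °C). The ultracentrifuged supernatant was TMT-labelled and run by LC-MS/MS in three independent experiments.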

± gives the standard deviation of the averaged measurements. The list shows a part of the results, in another mix than the full data. Small differences around the control level are noise.

Take UniProt P60900 and related entries: the NP40-soluble protein abundance stood at 1.01 ± 0.025 (concentration: 0.1mM) and 0.9928 ± 0.0045 (concentration: 0.5mM).
Regarding UniProt P61764 and related entries, the NP40-soluble protein abundance came to 1.02 ± 0.03 (concentration: 0.1mM) and 1.01 ± 0.052 (concentration: 0.5mM).
Consider NAA20 (UniProt P61599), for which the NP40-soluble protein abundance by setting is: (concentration: 0.1mM) 1.12 ± 0.16; (concentration: 0.5mM) 1.03 ± 0.13.
For EEFSEC (UniProt P57772), in that order: 1.02 ± 0.037 and 1.01 ± 0.026.
The matching figures for UniProt P62888: 0.932 ± 0.16 and 0.896 ± 0.15.
The matching figures for ACTR3 (UniProt P61158): 1.1 ± 0.085 and 1.04 ± 0.05.
As to UniProt P78346 and related entries, the NP40-soluble protein abundance was 1.01 ± 0.11 (concentration: 0.1mM) and 1.02 ± 0.07 (concentration: 0.5mM).
For the target UniProt P63151, the NP40-soluble protein abundance runs as follows: (concentration: 0.1mM) 1.06 ± 0.073; (concentration: 0.5mM) 1.06 ± 0.074.
Consider UniProt P62256 and related entries, for which the NP40-soluble protein abundance is, setting by setting: (concentration: 0.1mM) 0.95 ± 0.042; (concentration: 0.5mM) 0.942 ± 0.056.
For CASP9 (UniProt P55211), the NP40-soluble protein abundance runs as follows: (concentration: 0.1mM) 1.07 ± 0.031; (concentration: 0.5mM) 1.05 ± 0.092.
Take GRB2 (UniProt P62993): the NP40-soluble protein abundance reads like this: (concentration: 0.1mM) 1.04 ± 0.054; (concentration: 0.5mM) 1.01 ± 0.069.
As for ITGA1 (UniProt P56199), the NP40-soluble protein abundance by setting is: (concentration: 0.1mM) 0.934 ± 0.066; (concentration: 0.5mM) 0.911 ± 0.035.
As for UniProt P61106, the NP40-soluble protein abundance runs as follows: (concentration: 0.1mM) 0.985 ± 0.062; (concentration: 0.5mM) 1.01 ± 0.045.
UniProt P84095: the NP40-soluble protein abundance (concentration: 0.1mM) came out at 1.01 ± 0.061 and the NP40-soluble protein abundance (concentration: 0.5mM) was found to be 1.01 ± 0.064.
MLLT10 (UniProt P55197): the NP40-soluble protein abundance is, setting by setting: (concentration: 0.1mM) 1.01 ± 0.17; (concentration: 0.5mM) 0.984 ± 0.11.
On to SEC61B (UniProt P60468), for which the NP40-soluble protein abundance worked out at 0.848 ± 0.21 (concentration: 0.1mM) and 0.811 ± 0.28 (concentration: 0.5mM).
For CLNS1A (UniProt P54105), the NP40-soluble protein abundance (concentration: 0.1mM) stood at 0.917 ± 0.077 and the NP40-soluble protein abundance (concentration: 0.5mM) was determined as 0.872 ± 0.079.
Consider DSTN (UniProt P60981), for which the NP40-soluble protein abundance is, setting by setting: (concentration: 0.1mM) 0.986 ± 0.061; (concentration: 0.5mM) 1.01 ± 0.058.
Take UniProt P61289 and related entries: the NP40-soluble protein abundance by setting is: (concentration: 0.1mM) 0.902 ± 0.011; (concentration: 0.5mM) 0.712 ± 0.28.
The matching figures for TMSB4X (UniProt P62328): 0.981 ± 0.11 and 0.884 ± 0.09.
Take EIF6 (UniProt P56537): the NP40-soluble protein abundance is 1.06 ± 0.054 (concentration: 0.1mM) and 1.07 ± 0.078 (concentration: 0.5mM).
As to UniProt P55884 and related entries, the NP40-soluble protein abundance reads like this: (concentration: 0.1mM) 0.973 ± 0.031; (concentration: 0.5mM) 0.961 ± 0.077.
Regarding UniProt P56385, the NP40-soluble protein abundance was 0.944 ± 0.037 (concentration: 0.1mM) and 1.02 ± 0.015 (concentration: 0.5mM).
The matching figures for RAB4B (UniProt P61018): 0.997 ± 0.059 and 0.966 ± 0.036.
As to PAFAH1B2 (UniProt P68402), the NP40-soluble protein abundance is 0.866 ± 0.03 (concentration: 0.1mM) and 0.928 ± 0.097 (concentration: 0.5mM).
The matching figures for UniProt P62241: 0.908 ± 0.078 and 0.861 ± 0.065.
For FOXK1 (UniProt P85037), in that order: 0.987 ± 0.046 and 1.01 ± 0.052.
The matching figures for UniProt P56559 and related entries: 1.14 ± 0.048 and 1.22 ± 0.022.
As for UniProt P61604 and related entries, the NP40-soluble protein abundance (concentration: 0.1mM) was determined as 0.91 ± 0.067 and the NP40-soluble protein abundance (concentration: 0.5mM) worked out at 0.888 ± 0.039.
As for UniProt P56181 and related entries, the NP40-soluble protein abundance is, setting by setting: (concentration: 0.1mM) 0.963 ± 0.044; (concentration: 0.5mM) 0.969 ± 0.044.
With HDAC4 (UniProt P56524), the NP40-soluble protein abundance (concentration: 0.1mM) was 1.04 ± 0.1 and the NP40-soluble protein abundance (concentration: 0.5mM) was 0.987 ± 0.078.
On to UniProt P63167, for which the NP40-soluble protein abundance runs as follows: (concentration: 0.1mM) 0.972 ± 0.12; (concentration: 0.5mM) 1.02 ± 0.077.
In the case of PEX3 (UniProt P56589), the NP40-soluble protein abundance is, setting by setting: (concentration: 0.1mM) 1.04 ± 0.07; (concentration: 0.5mM) 1.02 ± 0.066.
Regarding PPP5C (UniProt P53041), the NP40-soluble protein abundance turned out to be 1.03 ± 0.067 (concentration: 0.1mM) and 1.04 ± 0.056 (concentration: 0.5mM).
Regarding UniProt P68366 and related entries, the NP40-soluble protein abundance reads like this: (concentration: 0.1mM) 1.04 ± 0.13; (concentration: 0.5mM) 1.04 ± 0.054.
Turning to UniProt P61927, the NP40-soluble protein abundance reads like this: (concentration: 0.1mM) 0.917 ± 0.041; (concentration: 0.5mM) 0.875 ± 0.044.
In the case of UniProt P62263, the NP40-soluble protein abundance is, setting by setting: (concentration: 0.1mM) 0.95 ± 0.089; (concentration: 0.5mM) 0.98 ± 0.072.
UniProt P61129: the NP40-soluble protein abundance is 0.934 ± 0.098 (concentration: 0.1mM) and 0.957 ± 0.072 (concentration: 0.5mM).
On to UniProt P62273, for which the NP40-soluble protein abundance came out at 0.81 ± 0.18 (concentration: 0.1mM) and 0.771 ± 0.17 (concentration: 0.5mM).
For UBXN2A (UniProt P68543), in that order: 1 ± 0.046 and 0.949 ± 0.067.
As for UniProt Q00013 and related entries, the NP40-soluble protein abundance reads like this: (concentration: 0.1mM) 1.04 ± 0.06; (concentration: 0.5mM) 1.05 ± 0.043.
On to P62158 (UniProt P0DP23), for which the NP40-soluble protein abundance runs as follows: (concentration: 0.1mM) 0.94 ± 0.15; (concentration: 0.5mM) 1.06 ± 0.19.
The matching figures for MRPS6 (UniProt P82932): 0.846 ± 0.15 and 0.861 ± 0.17.
UniProt P62269: the NP40-soluble protein abundance (concentration: 0.1mM) amounted to 0.872 ± 0.14 and the NP40-soluble protein abundance (concentration: 0.5mM) is 0.83 ± 0.15.
For UniProt P54136 and related entries, in that order: 1.03 ± 0.045 and 1.04 ± 0.023.
Turning to UniProt P78356, the NP40-soluble protein abundance (concentration: 0.1mM) is 1.02 ± 0.021 and the NP40-soluble protein abundance (concentration: 0.5mM) stood at 1.02 ± 0.024.
RPP38 (UniProt P78345): the NP40-soluble protein abundance is, setting by setting: (concentration: 0.1mM) 0.941 ± 0.027; (concentration: 0.5mM) 0.944 ± 0.055.
In the case of LMO4 (UniProt P61968), the NP40-soluble protein abundance is, setting by setting: (concentration: 0.1mM) 0.926 ± 0.032; (concentration: 0.5mM) 1 ± 0.049.
Turning to UniProt P55210 and related entries, the NP40-soluble protein abundance is, setting by setting: (concentration: 0.1mM) 0.993 ± 0.031; (concentration: 0.5mM) 1.05 ± 0.06.
With UniProt P62081, the NP40-soluble protein abundance (concentration: 0.1mM) amounted to 0.937 ± 0.091 and the NP40-soluble protein abundance (concentration: 0.5mM) was 0.941 ± 0.077.
The matching figures for POLR2K (UniProt P53803): 0.9902 ± 0.0094 and 1.045 ± 0.0093.
Turning to GSTO1 (UniProt P78417), the NP40-soluble protein abundance is, setting by setting: (concentration: 0.1mM) 0.987 ± 0.036; (concentration: 0.5mM) 0.976 ± 0.072.
In the case of UniProt P62879, the NP40-soluble protein abundance (concentration: 0.1mM) was 1.01 ± 0.021 and the NP40-soluble protein abundance (concentration: 0.5mM) is 0.985 ± 0.021.
Turning to CEBPG (UniProt P53567), the NP40-soluble protein abundance by setting is: (concentration: 0.1mM) 1.09 ± 0.081; (concentration: 0.5mM) 1.01 ± 0.069.
Take DYNLT1 (UniProt P63172): the NP40-soluble protein abundance was found to be 0.922 ± 0.069 (concentration: 0.1mM) and 0.992 ± 0.08 (concentration: 0.5mM).
For UniProt P61024 and related entries, in that order: 0.938 ± 0.042 and 1.03 ± 0.075.
For UniProt P62917, in that order: 0.95 ± 0.099 and 0.921 ± 0.13.
Regarding SUCLG1 (UniProt P53597), the NP40-soluble protein abundance amounted to 0.987 ± 0.039 (concentration: 0.1mM) and 1.04 ± 0.027 (concentration: 0.5mM).
Regarding HNRNPH2 (UniProt P55795), the NP40-soluble protein abundance (concentration: 0.1mM) amounted to 1.08 ± 0.033 and the NP40-soluble protein abundance (concentration: 0.5mM) amounted to 1.07 ± 0.065.
Consider UniProt P61956, for which the NP40-soluble protein abundance (concentration: 0.1mM) was found to be 0.831 ± 0.072 and the NP40-soluble protein abundance (concentration: 0.5mM) was 0.829 ± 0.13.
